Values quoted from earlier work in US12017976B1, “1-(4-carbonoimidoylphenoxy)-3-{4-[(e)-(phenylimino)methyl]phenoxy }propan-2-ol as an eco-friendly insecticidal agent against Spodoptera littoralis (boisd.)” (KING FAISAL UNIVERSITY, priority 2024, dated 2024).
Some results were stated once for a whole list of compounds, not compound by compound.

Test system: aquatic insects
Conditions: highly toxic / very highly toxic classification; cited from earlier work

## CCOC(=O)NCCOc1ccc(Oc2ccccc2)cc1 [fenoxycarb]
  LC50 for aquatic insects: < 100 µg/mL

## COC(C)(C)CCC[C@H](C)C/C=C/C(C)=C/C(=O)OC(C)C (racemic) [methoprene]
  LC50 for aquatic insects: < 100 µg/mL
